For eight molecules, binding results are on record in patent US20240158538A1.

Amino acid sequences for entries named in this document (tags omitted). A change or cut given only in a name is not applied to a line headed by its entry.
UniProt Q9H7M9: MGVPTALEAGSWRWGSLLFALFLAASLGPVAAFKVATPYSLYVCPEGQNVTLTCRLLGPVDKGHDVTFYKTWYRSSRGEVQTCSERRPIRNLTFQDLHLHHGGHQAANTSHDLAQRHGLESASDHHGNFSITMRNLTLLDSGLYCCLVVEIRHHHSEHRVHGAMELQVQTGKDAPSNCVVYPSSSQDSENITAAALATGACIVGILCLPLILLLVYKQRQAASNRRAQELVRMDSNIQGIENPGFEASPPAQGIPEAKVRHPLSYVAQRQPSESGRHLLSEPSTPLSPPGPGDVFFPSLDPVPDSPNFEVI

These are yes or no findings as the source states them, for the method shown. Some binding calls cover weakened binding; strength is not graded here.

The target in test [1] is human VISTA polypeptide (ELISA coat) (human) (UniProt Q9H7M9). Kind of test: ELISA, plate coated with human VISTA. (ELISA stands for enzyme-linked immunosorbent assay.)
For test [2] the target is unchanged. Kind of test: ELISA, plate-coated protein.
The target is the same in test [3]. The test can be described thus: ELISA, plate coated with B7H5 (VISTA).

B1: anti-VISTA clone V4-C1 IgG1 (antibody, V domains shown)
VH: QVQLQESGPGLVKPSDTLSLTCTVSGYSITSDYAWNWIRQTPGKGLEWIGYITYSGYISYNPSLRSRVTISRDTSKNQFSLKLSSVTAADTAVYSCARALYYPWYFDVWGTGTTVTVSS
VL: EIVITQSPATLSLSPGERATLSCRASSSVGYIHWYQQKPGQAPRPLIYATSNRATGIPARFSGSGSGTDNTLTISSLEPEDSAVYYCQQWSSYPPITFGGGTKLEVKR
As for B1, in test [1], the binding result was “binds”.

B2: anti-VISTA clone V4-C24 IgG1 (antibody, V domains shown)
VH: QVQLQESGPGLVKPSDTLSLTCTVSGYSITSDYTWNWIRQTPGKGLEWIGHITYSGSVSYNPSLRSRVTISRDTSKNQFSLKLSSVTAADTATYSCARALYYPWYFDVWGTGTTVTVSS
VL: EIVLTQSPATLSLSPGERATLSCRASSSVGYIHWYQQKPGQAPRPLIYTTSYRATGIPARFSGSGSGTDNTLTISSLEPEDSAVYYCQQWSSYPPITFGGGTKLEVKR
Consider B2, for which the binding result in test [2], in test [1] and in test [3] was “binds” each time.

B3: anti-VISTA clone V4-C28 IgG1 (antibody, V domains shown)
VH: QVQLQESGPGLVKPSDTLSLTCTVSGYSITSDYTWNWIRQTPGKGLEWIGHITYSGSVSYNPSLRSRVTISRDTSKNQFSLKLSSVTAADTATYSCARALYYPWYFDVWGTGTTVTVSS
VL: EIVLTQSPATLSLSPGERATLSCRASSSVGYIHWYQQKPGQAPRPLIYATSYRATGIPARFSGSGSGTDNTLTISSLEPEDSAVYYCQQWSSYPPITFGGGTKLEVKR
For B3, the binding result in test [2], in test [1] and in test [3] was “binds” in each case.

B4: anti-VISTA clone V4-C26 IgG1 (antibody, V domains shown)
VH: QVQLQESGPGLVKPSDTLSLTCTVSGYSITSDYTWNWIRQTPGKGLEWIGHITYSGSVSYNPSLRSRVTISRDTSKNQFSLKLSSVTAADTATYSCARALYYPWYFDVWGTGTTVTVSS
VL: EIVLTQSPATLSLSPGERATLSCRASSSVGYIHWYQQKPGQAPRPIIYTTSNRATGIPARFSGSGSGTDNTLTISSLEPEDSAVYYCQQWSSYPPITFGGGTKLEVKR
Regarding B4, the binding entry in test [2], in test [1] and in test [3] was “binds” in each case.

B5: anti-VISTA clone V4-C9 IgG1 (antibody, V domains shown)
VH: QVQLQESGPGLVKPSDTLSLTCTVSGYSITSDYAWNWIRQTPGKGLEWIGYITYSGYVSYNPSLRSRVTISRDTSKNQFSLKLSSVTAADTAVYSCARALYYPWYFDVWGTGTTVTVSS
VL: EIVLTQSPATLSLSPGERATLSCRASSSVGYIHWYQQKPGQAPRPLIYATSNRATGIPARFSGSGSGTDNTLTISSLEPEDSAVYYCQQWSSYPPITFGGGTKLEVKR
In the case of B5, in test [1], the binding result was “binds”.

B6: anti-VISTA clone V4-C27 IgG1 (antibody, V domains shown)
VH: QVQLQESGPGLVKPSDTLSLTCTVSGYSITSDYTWNWIRQTPGKGLEWIGHITYSGSVSYNPSLRSRVTISRDTSKNQFSLKLSSVTAADTATYSCARALYYPWYFDVWGTGTTVTVSS
VL: EIVLTQSPATLSLSPGERATLSCRASSSVGYIHWYQQKPGQAPRPLIYATYNRATGIPARFSGSGSGTDNTLTISSLEPEDSAVYYCQQWSSYPPITFGGGTKLEVKR
With B6, the binding entry in test [2], in test [1] and in test [3] was “binds” throughout.

B7: anti-VISTA clone V4-C30 IgG1 (antibody, V domains shown)
VH: QVQLQESGPGLVKPSDTLSLTCTVSGYSITSDYTWNWIRQTPGKGLEWIGHITYSGSVSYNPSLRSRVTISRDTSKNQFSLKLSSVTAADTATYSCARALYYPWYFDVWGTGTTVTVSS
VL: EIVLTQSPATLSLSPGERATLSCRASSSVGYIHWYQQKPGQAPRPLIYATYYRATGIPARFSGSGSGTDNTLTISSLEPEDSAVYYCQQWSSYPPITFGGGTKLEVKR
With B7, the binding result in test [2], in test [1] and in test [3] was “binds” each time.

B8: anti-VISTA clone V4-C31 IgG1 (antibody, V domains shown)
VH: QVQLQESGPGLVKPSDTLSLTCTVSGYSITSDYTWNWIRQTPGKGLEWIGHITYSGSVSYNPSLRSRVTISRDTSKNQFSLKLSSVTAADTATYSCARALYYPWYFDVWGTGTTVTVSS
VL: EIVLTQSPATLSLSPGERATLSCRASSSVGYIHWYQQKPGQAPRPLIYATYYRTTGIPARFSGSGSGTDNTLTISSLEPEDSAVYYCQQWSSYPPITFGGGTKLEVKR
Consider B8, for which the binding result in test [2], in test [1] and in test [3] was “binds” each time.
